# Reference: PubChem BioAssay AID624297 (National Center for Advancing Translational Sciences (NCATS), 2012)
# The campaign covered roughly 340,000 compounds. About 6,200 (1.8%) were called active. Inconclusive means that the source gave no clear call. Such entries were picked first, then a sample of the others. Calls follow the shape of the dose curve; as a rule, active = well fitted activation curve with a large enough effect; inconclusive = small, poorly fitted or top-dose-only effect; inactive = no such curve, though single readings can be large or run the other way. Potencies beside an inconclusive call are fits to weak or partial responses and may not hold up.
# Assay: A quantitative high throughput screen for small molecules that induce DNA re-replication in SW480 colon adenocarcinoma cells. Also: nearly all actives have a fitted effect of over 55% in size. As to re-replication activation: % of control where 0% means no effect.
# Conditions: Hoechst DNA content imaging, 48 h; re-replication activation: at 46.1 µM (top of the series) unless noted
# Outline: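 Image-based DNA-content assay: after two days of treatment, nuclei were labelled with the DNA dye Hoechst and imaged, and hits were compounds raising the count of nuclei showing high fluorescence intensity.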
# Potency is read from the fitted curve at half-maximal effect.
Structure (SMILES),re-replication activation,Potency
C/C(=N\NC(=O)COc1ccccc1)c1ccc(O)cc1,inactive: -11.1%,
Cc1ccc(NC(=O)CCC(=O)Nc2nnc(C3CCCCC3)s2)cc1,,"inconclusive: 6.51 µM [activator, single point]"
COc1cccc(NC(=S)NCc2ccccn2)c1,,"inconclusive: 29.1 µM [activator, single point]"
CC(C)[C@H](NC(=O)NC1CCCc2ccccc21)C(=O)O (some centres undefined),,"inconclusive: 20.6 µM [activator, partial curve, poor fit]"
COc1ccc(S(=O)(=O)NCc2ccccn2)cc1NC(=O)c1ccccc1F,,active: 5.8 µM
O=c1c2cn[nH]c2nc(SCc2cc(=O)n3cc(Br)ccc3n2)n1-c1ccc(Br)cc1,,"inconclusive: 18.4 µM [activator, single point]"
CC(C)Cn1c(N)c(C(=O)CSc2ncn[nH]2)c(=O)n(C)c1=O,,"inconclusive: 29.1 µM [activator, partial curve, poor fit]"
CCCc1cc(N2CCN(C(=O)c3ccco3)CC2)n2c(nc3ccccc32)c1C#N,,"inconclusive: 20.6 µM [activator, single point]"
S=C1NC[C@H](Cc2ccccc2)N1CC1CCN(CCCC2CCCC2)CC1,,"inconclusive: 29.1 µM [activator, single point]"
S=c1[nH]nc(-c2ccco2)n1/N=C/c1ccc(Cl)cc1Cl,,"inconclusive: 18.4 µM [activator, single point]"
COc1ccc(CCNC(=O)/C=C/c2ccc3ccccc3n2)cc1OC,,active: 20.6 µM
COc1ccc(CCNC(=O)c2cc([N+](=O)[O-])ccc2N2CCOCC2)cc1,,"inconclusive: 18.4 µM [activator, single point]"
Cc1ccc2nc(NC(=O)CSc3nc(=O)n(CCCN(C)C)c4c3CCC4)sc2c1,,"inconclusive: 2.91 µM [activator, partial curve, poor fit]"
Cc1ccnc(N2C(=O)c3ccccc3C2=O)c1,inactive: -3.81%,
O=C(CSc1nnc(-c2ccco2)o1)c1ccc([N+](=O)[O-])cc1,,"inconclusive: 32.6 µM [activator, single point]"
COc1ccc(/C=C/c2nc(S(=O)(=O)c3ccccc3)c(NCCCN(C)C)o2)cc1OC,,"inconclusive: 20.6 µM [activator, single point]"
O=C1C=CC(=O)N1c1ccc2c(c1)Cc1cc(F)ccc1-2,,"inconclusive: 23.1 µM [activator, single point]"
CCC(=O)Oc1ccc(-c2cnc3ccccc3n2)cc1,,"inconclusive: 32.6 µM [activator, partial curve, poor fit]"
COc1ccc(/C=C/C(=O)c2cc(Br)ccc(=O)c2O)cc1,,"inconclusive: 18.4 µM [activator, single point]"
Cc1cc(Nc2n[nH]c(N)c2C#N)ccc1F,,"inconclusive: 29.1 µM [activator, single point]"
COc1cc(C=CC(=O)c2cc(OC)c(OC)c(OC)c2)cc(OC)c1OC,,"inconclusive: 23.1 µM [activator, single point]"
Cc1c(C(=O)OCC(C)C)[nH]c2c1C(=O)CC(c1ccco1)C2 (centres undefined),,active: 0.517 µM

# One compound at a time (already shown):
# COc1ccc(CCNC(=O)/C=C/c2ccc3ccccc3n2)cc1OC in the list: Potency: active: 20.6 µM
# Cc1ccc(NC(=O)CCC(=O)Nc2nnc(C3CCCCC3)s2)cc1 in the list: Potency: inconclusive: 6.51 µM [activator, single point]

# 2 entries from above, tab-delimited:
Structure (SMILES)	re-replication activation	Potency
COc1ccc(CCNC(=O)/C=C/c2ccc3ccccc3n2)cc1OC		active: 20.6 µM
COc1ccc(CCNC(=O)c2cc([N+](=O)[O-])ccc2N2CCOCC2)cc1		inconclusive: 18.4 µM [activator, single point]

# Remaining list, next part

Structure (SMILES),re-replication activation,Potency
CCOc1ccc(CCNC(=O)Nc2cccc(OC)c2)cc1OCC,inactive: -1.6%,
O=C(/C=C/c1c(Cl)cccc1Cl)N1CCOCC1,inactive: -8.82%,
NC12CC3CC(CC(C3)C1)C2,,"inconclusive: 0.891 µM [activator, partial curve, poor fit]"
CC(C)c1onc(C(=O)N2CCN(c3ccccc3)CC2)c1[N+](=O)[O-],,"inconclusive: 29.1 µM [activator, single point]"
O=c1oc2ccccc2c2c1ncn2CCN1CCOCC1,,"inconclusive: 4.61 µM [activator, partial curve, poor fit]"
O=C(Nc1ccc(F)cc1F)c1ccc2c(c1)[nH]c(=O)n2Cc1ccc(F)cc1,inactive: -42.4%,
COc1ccc(-n2cc(CNCCCn3ccnc3)c(-c3cccc(F)c3)n2)cc1,,"inconclusive: 29.1 µM [activator, single point]"
Cc1cccc(NC(=O)C2CCN(S(=O)(=O)c3cccc4nonc34)CC2)c1,,"inconclusive: 35.5 µM [activator, single point]"
Cc1ccc(/C=C/C(=O)N2CCCN(C(=O)/C=C/c3ccc(C)cc3)CC2)cc1,inactive: 8.09%,
O=C(Cn1[nH]c(=O)c2ccccc2c1=O)NNC(=O)c1ccccc1,,"inconclusive: 11.6 µM [activator, single point]"
COc1ccc(N(CC(O)Cn2c3ccccc3c3ccccc32)S(=O)(=O)c2ccccc2)cc1 (centres undefined),,"inconclusive: 3.26 µM [activator, full curve]"
O=C(CCn1c(=O)oc2ccc(Cl)cc21)NCCCN1CCOCC1,inactive: 8.04%,
C[C@H](CO)N1C[C@H](C)[C@@H](CN(C)CC2CCCCC2)Oc2c(NC(=O)Cc3ccccc3)cccc2C1=O,,"inconclusive: 20.6 µM [activator, single point]"
CCC(C)(C)n1nnnc1C(c1cc2cc(C)cc(C)c2[nH]c1=O)N1CCCC1 (centres undefined),inactive: 22.3%,
COc1ccc(S(=O)(=O)N(C)CC(=O)Nc2ccc(C(F)(F)F)cc2)cc1Cl,,"inconclusive: 17.8 µM [activator, partial curve, poor fit]"
COc1ccc(NC(=S)N2CCN(S(C)(=O)=O)CC2)cc1,,"inconclusive: 29.1 µM [activator, single point]"
Nc1[nH]n2c(=O)cc(-c3ccccc3)nc2c1N=Nc1ccc(S(N)(=O)=O)cc1,inactive: 1.13%,
Cc1ccc(/C(N)=N/OC(=O)c2cccs2)cc1,inactive: 1.08%,
O=C(Nc1ccccc1)c1ccco1,inconclusive: 31.1% [activator],
O=C(NN(c1ccccc1)c1ccccc1)c1ccc([N+](=O)[O-])o1,,active: 11.6 µM
Cc1cc(OCC(=O)Nc2ccccc2N2CCCCC2)ccc1C(C)C,,"inconclusive: 20.6 µM [activator, single point]"
COc1ccc(C2CC(c3ccccc3)=NN2c2ccc(Cl)c(C(=O)O)c2)cc1 (centres undefined),,"inconclusive: 18.4 µM [activator, single point]"
